Measured values from patent US20220018857A1.
No constants are given. Whether binding was seen depends on the method and setting. Some results given as binding are weak or reduced against the parent protein; the word gives no strength.

Protein sequences, listed by entry. Tags and fused reporters are not part of them. Lines headed by an entry give the natural chain unless they say otherwise; changes in a name come on top.
UniProt P10636: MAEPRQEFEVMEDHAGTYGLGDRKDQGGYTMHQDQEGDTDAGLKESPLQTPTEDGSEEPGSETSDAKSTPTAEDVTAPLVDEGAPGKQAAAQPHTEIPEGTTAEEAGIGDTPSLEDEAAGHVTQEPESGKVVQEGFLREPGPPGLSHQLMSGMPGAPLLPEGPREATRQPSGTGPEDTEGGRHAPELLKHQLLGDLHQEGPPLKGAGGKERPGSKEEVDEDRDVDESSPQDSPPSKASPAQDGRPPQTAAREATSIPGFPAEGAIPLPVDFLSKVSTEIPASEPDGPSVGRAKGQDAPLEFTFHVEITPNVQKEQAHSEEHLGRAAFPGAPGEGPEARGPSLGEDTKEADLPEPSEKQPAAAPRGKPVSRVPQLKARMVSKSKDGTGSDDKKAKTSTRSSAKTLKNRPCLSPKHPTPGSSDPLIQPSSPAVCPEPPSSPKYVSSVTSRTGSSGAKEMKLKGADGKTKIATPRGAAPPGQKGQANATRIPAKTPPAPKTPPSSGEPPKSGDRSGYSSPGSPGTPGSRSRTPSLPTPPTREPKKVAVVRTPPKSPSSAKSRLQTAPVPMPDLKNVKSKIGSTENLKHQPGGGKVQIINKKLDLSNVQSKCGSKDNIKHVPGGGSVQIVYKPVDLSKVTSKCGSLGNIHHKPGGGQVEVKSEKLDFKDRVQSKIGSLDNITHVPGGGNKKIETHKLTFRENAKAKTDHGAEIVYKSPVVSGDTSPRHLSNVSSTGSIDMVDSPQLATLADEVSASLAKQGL

Biological target: p217+tau peptides (human tau protein or tau fragment phosphorylated at residue 217) (human) (UniProt P10636)
Assay: SiMoA 3-step sandwich ELISA, pT3 capture, CSF, serum and plasma

B1: hT43 monoclonal antibody (antibody, V domains shown)
VH: EVKLVESGGDLVKPGGSLKLSCAASGFTFRSYGMSWVRQTPDKRLEWVTTINSDGSYTYYPDSVKGRFTISRDNAKNTLYLQMSSLKSEDTAMYYCAVSWDGAMDYWGQGTSVTVSS
VL: DVLVTQTPLSLPVSLGDQASISCRSSQSILHSNGNTYFEWYLQRPGQSPKLLIYKVSNRFSGVPDRFSGSGSGTDFTLKISRVEAEDLGVYYCFQGSLVPWTFGGGTKLEIK
B1 was tested, and the binding was “binds”.

B2: pT82 monoclonal antibody (antibody, V domains shown)
VH: EVKLEESGGGLVQPGGSMKLSCVASGFTFSNYWMNWIRQSPEKGLEWVAQIRLQSDNYATRYAESVKGRFTISRDESKTSVYLQMNNLRTEDTGIYYCTGGTTYWGQGTLVTVSA
VL: DIVMTQSQKFMSTSVGDRVSITCKASQNVGTAVAWYQQKPGQSPKLLIYSASIRYTGVPDRFTGSGSGTDFTLTINYMQSEDLADYFCQQFSSYPYTFGGGTKLEIK
In the case of B2, the binding is reported as “binds”.
